The exact form of at least one protein or probe is not confirmed. For part of these data: No signal at the amounts used counts as a negative. For part of these data: Tags and fusion partners may be left off the protein sequences shown. For part of these data: Weaker means in comparison with the reference protein, sequence or condition of that experiment.

Protein sequences, listed by entry. Tags and fused reporters are not part of them. Lines headed by an entry give the natural chain unless they say otherwise; changes in a name come on top.
UniProt P70434: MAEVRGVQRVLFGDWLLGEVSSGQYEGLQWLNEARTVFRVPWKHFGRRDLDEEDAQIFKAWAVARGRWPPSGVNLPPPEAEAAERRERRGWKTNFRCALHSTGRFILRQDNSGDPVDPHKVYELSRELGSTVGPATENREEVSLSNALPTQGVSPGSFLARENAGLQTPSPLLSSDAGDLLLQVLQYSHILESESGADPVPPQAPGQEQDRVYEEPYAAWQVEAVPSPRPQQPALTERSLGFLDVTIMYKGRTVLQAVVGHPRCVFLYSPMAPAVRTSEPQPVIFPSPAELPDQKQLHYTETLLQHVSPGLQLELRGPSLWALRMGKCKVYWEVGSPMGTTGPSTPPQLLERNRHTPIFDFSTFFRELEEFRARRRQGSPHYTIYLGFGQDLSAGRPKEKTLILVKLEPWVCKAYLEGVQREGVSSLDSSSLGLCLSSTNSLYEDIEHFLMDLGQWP

Data set [1] has as its target MBP-IRF7 (mouse (cDNA from MHV-stimulated BMDCs)) (UniProt P70434). As to the kind of experiment: EMSA. The settings on record: 400 mM Tris-HCl pH 8.0, proteins 30 min on ice, then probe 30 min at room temperature, 1% agarose gel, recombinant protein, protein details: MBP (pMAL-CX2), label: CY5.
Data set [2] addresses T1, GST-IFI204 (mouse (cDNA from MHV-stimulated BMDCs)) (UniProt P0DOV2).
T1 sequence (looked up, limits assumed): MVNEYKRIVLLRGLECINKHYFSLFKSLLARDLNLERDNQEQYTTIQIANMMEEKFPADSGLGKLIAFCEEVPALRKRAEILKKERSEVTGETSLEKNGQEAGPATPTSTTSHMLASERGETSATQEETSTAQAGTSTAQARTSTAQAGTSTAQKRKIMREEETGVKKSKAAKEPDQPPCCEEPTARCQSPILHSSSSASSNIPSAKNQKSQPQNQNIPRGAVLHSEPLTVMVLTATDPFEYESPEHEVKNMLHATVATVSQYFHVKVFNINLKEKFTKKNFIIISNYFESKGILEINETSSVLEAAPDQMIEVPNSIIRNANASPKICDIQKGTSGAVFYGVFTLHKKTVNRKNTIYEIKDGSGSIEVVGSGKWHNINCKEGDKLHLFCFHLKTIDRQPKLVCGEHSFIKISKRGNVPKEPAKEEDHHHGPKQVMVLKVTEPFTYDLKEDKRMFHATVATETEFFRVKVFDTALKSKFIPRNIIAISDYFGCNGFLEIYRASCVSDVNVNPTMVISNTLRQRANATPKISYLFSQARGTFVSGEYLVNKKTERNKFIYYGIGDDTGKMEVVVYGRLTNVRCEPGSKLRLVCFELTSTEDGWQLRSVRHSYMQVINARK
As to the kind of experiment: EMSA. The conditions noted are these: 400 mM Tris-HCl pH 8.0; proteins 30 min on ice, then probe 30 min at room temperature; 1% agarose gel; recombinant protein; protein details: GST (pGEX-4T-1); label: CY5. For orientation: Mobility shift assays separate free from complexed probe on a gel.

As to “GAGAAGTGAAAGTGGAGAAGTGAAAGTGGAGAAGTGAAAGTGGAGAAGTGAAAGTG (double strand) [PRDI (IFN-beta promoter PRDI region)]”, the binding result is “binds” in data set [1]; “binds more weakly” in data set [1] (GST-IFI204 added, dose-dependent inhibition); “no binding” in data set [2].

For the origin of these results see article PMC6818788.
